No constants are given. Whether binding was seen depends on the method and setting. A result given as binding can be weak or reduced; the word gives no strength. Values belong to the binder of their own block, whether it stands above or below them.
Molecular target: HLA-A*02:01 (human)
Assay: UV-ligand exchange + anti-b2m ELISA; peptide exchange yield grade (+ >=10%, ++ >=20%, +++ >=50%, ++++ >=75%)

B4: … (SEQ ID NO: 89) (peptide)
peptide: SLIEYEFRV
- binding: binds

B5: … (SEQ ID NO: 80) (peptide)
peptide: QVDEVVDIMRV
- binding: binds

B6: … (SEQ ID NO: 85) (peptide)
peptide: ILHDINSDGVL
- binding: binds

B7: … (SEQ ID NO: 9) (peptide)
peptide: ILDDHLSRV
- binding: binds

B8: … (SEQ ID NO: 84) (peptide)
peptide: SMVEDITGLRL
- binding: binds

B11: … (SEQ ID NO: 77) (peptide)
peptide: SLLKRDFGA
- binding: binds

B15: … (SEQ ID NO: 86) (peptide)
peptide: KVFPGKISV
- binding: binds

B16: … (SEQ ID NO: 81) (peptide)
peptide: ALLSQQTHL
- binding: binds

B17: … (SEQ ID NO: 82) (peptide)
peptide: QLYEEPDTKL
- binding: binds

B19: … (SEQ ID NO: 78) (peptide)
peptide: ALDPELLLL
- binding: binds

B23: … (SEQ ID NO: 83) (peptide)
peptide: LTIEDGIFEV
- binding: binds

B26: … (SEQ ID NO: 87) (peptide)
peptide: LLFDAPDLRL
- binding: binds

B27: … (SEQ ID NO: 88) (peptide)
peptide: KLDIKVETV
- binding: binds

B28: … (SEQ ID NO: 79) (peptide)
peptide: SLAADQLLKL
- binding: binds

B29: … (SEQ ID NO: 8) (peptide)
peptide: ALMLQGVDLL
- binding: binds

Further lines, results first:

- binding: binds
B1: … (SEQ ID NO: 101) (peptide)
peptide: GLSEGHTFQV

- binding: binds
B2: … (SEQ ID NO: 94) (peptide)
peptide: KSMDIVLTV

- binding: binds
B3: … (SEQ ID NO: 98) (peptide)
peptide: AMNGKSFSV

- binding: binds
B9: … (SEQ ID NO: 96) (peptide)
peptide: KLYSRLVYV

- binding: binds
B10: … (SEQ ID NO: 99) (peptide)
peptide: KLLEVDLDTV

- binding: binds
B12: … (SEQ ID NO: 100) (peptide)
peptide: SLDDFLATA

- binding: binds
B13: … (SEQ ID NO: 95) (peptide)
peptide: AILDAHIEV

- binding: binds
B14: … (SEQ ID NO: 92) (peptide)
peptide: WIDDTSAFV

- binding: binds
B18: … (SEQ ID NO: 93) (peptide)
peptide: SLQELRLLL

- binding: binds
B20: … (SEQ ID NO: 103) (peptide)
peptide: FLFGYPKRL

- binding: binds
B21: … (SEQ ID NO: 97) (peptide)
peptide: ALWWGVVTV

- binding: binds
B22: … (SEQ ID NO: 90) (peptide)
peptide: GLLKPGLNVVL

- binding: binds
B24: … (SEQ ID NO: 91) (peptide)
peptide: TVDVATPSV

- binding: binds
B25: … (SEQ ID NO: 102) (peptide)
peptide: KILVSLIEV
